Counter-ions that a name gives are not always drawn. The list shows a part of the results. Plates or batches differ in their baseline, so values are only roughly comparable.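 HCT116-GFP, a KRAS-mutant, microsatellite-unstable human colorectal cancer line, constantly expresses green fluorescent protein; immune cells were from healthy donors. Cancer cell survival was tracked by live-cell imaging of green fluorescence, and activated immune cells by themselves reduced survival to roughly half.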
test system: HCT116-GFP; test: HCT116-GFP viability (GFP intensity) relative to untreated HCT116-GFP monoculture control, co-culture with activated PBMCs; higher = less cancer cell killing; conditions: culture: co-culture with anti-CD3/IL2 activated PBMCs 1:1; 10 µM; 72 h

| SMILES | HCT116-GFP viability [%] |
| --- | --- |
| CC(C(=O)O)c1ccc2c(c1)[nH]c1ccc(Cl)cc12 (centres undefined) [Carprofen] | 36.2 |
| CN(C)C(=O)C(CCN1CCC(O)(c2ccc(Cl)cc2)CC1)(c1ccccc1)c1ccccc1 [Loperamide hydrochloride] | 35.7 |
| CC(C(=O)O)c1ccc(-c2ccccc2)c(F)c1 (centres undefined) [Flurbiprofen] | 70.5 |
| O=C(OCC(O)CO)c1ccccc1Nc1ccnc2cc(Cl)ccc12 (centres undefined) [Glafenine hydrochloride] | 70.4 |
| C[C@H]1O[C@@H](O[C@H]2[C@@H](O)C[C@H](O[C@H]3[C@@H](O)C[C@H](O[C@H]4CC[C@@]5(C)[C@H](CC[C@@H]6[C@@H]5C[C@@H](O)[C@]5(C)[C@@H](C7=CC(=O)OC7)CC[C@]65O)C4)O[C@@H]3C)O[C@@H]2C)C[C@H](O)[C@@H]1O [Digoxin] | 0.219 |
| COc1cc([S+](C)[O-])ccc1-c1nc2cccnc2[nH]1 (centres undefined) [Sulmazole] | 63.8 |
| C(=C\c1ccccc1)/CN1CCN(C(c2ccccc2)c2ccccc2)CC1 [Cinnarizine] | 62 |
| O=C(C1CCCCC1)N1CC(=O)N2CCc3ccccc3C2C1 (centres undefined) [Praziquantel] | 31.5 |
| COc1ccc2c(c1)c(CC(=O)O)c(C)n2C(=O)c1ccc(Cl)cc1 [Indomethacin] | 41.2 |
| CN1CCC(=C2c3ccccc3CCc3cccnc32)CC1 [Azatadine maleate] | 58 |
| Nc1nc2ccc(OC(F)(F)F)cc2s1 [Riluzole hydrochloride] | 37.4 |
| C=C1c2c(Cl)ccc(O)c2C(=O)C2=C(O)[C@]3(O)C(=O)C(C(N)=O)=C(O)[C@@H](N(C)C)[C@@H]3[C@@H](O)[C@H]12.O=C(O)c1cc(S(=O)(=O)O)ccc1O [Meclocycline sulfosalicylate] | 23.8 |
| CC(C)(C)NCC(O)COc1cccc2c1CCC(=O)N2 (centres undefined) [Carteolol hydrochloride] | 50.2 |
| CC(=O)NCCCS(=O)(=O)O [Acamprosate calcium] | 40.5 |
| CCOC(=O)O[C@]1(C(=O)COC(=O)CC)CC[C@H]2[C@@H]3CCC4=CC(=O)C=C[C@]4(C)[C@H]3[C@@H](O)C[C@@]21C [Prednicarbate] | 52.8 |
| CC[C@H](C)[C@H](N)C1=N[C@H](C(=O)N[C@@H](CC(C)C)C(=O)N[C@H](CCC(=O)O)C(=O)N[C@H](C(=O)N[C@H]2CCCCNC(=O)[C@H](CC(N)=O)NC(=O)[C@@H](CC(=O)O)NC(=O)[C@H](Cc3cnc[nH]3)NC(=O)[C@@H](Cc3ccccc3)NC(=O)[C@H]([C@@H](C)CC)NC(=O)[C@@H](CCCN)NC2=O)[C@@H](C)CC)CS1 [Bacitracin] | 73.7 |
| COc1ccc(OC)c(C(O)CNC(=O)CN)c1 (centres undefined) [Midodrine hydrochloride] | 22.8 |
| CN(C)CCN1C(=O)c2ccccc2N(C)c2ccccc21 [Dibenzepine hydrochloride] | 59.6 |
| CN1CCN(CCCN2c3ccccc3Sc3ccc(C(F)(F)F)cc32)CC1 [Trifluoperazine dihydrochloride] | 38 |
| Nc1ccn([C@H]2CC[C@@H](CO)O2)c(=O)n1 [Zalcitabine] | 45.5 |
| CN(C(=O)C(Cl)Cl)c1ccc(OC(=O)c2ccco2)cc1 [Diloxanide furoate] | 68.8 |
| CN(C)CCOC(C)(c1ccccc1)c1ccccn1 (centres undefined) [Doxylamine succinate] | 27.5 |
| CC(=O)c1ccc2c(c1)N(CCCN(C)C)c1ccccc1S2 [Acetopromazine maleate salt] | 52 |
| CC(C)(C#N)c1cc(Cn2cncn2)cc(C(C)(C)C#N)c1 [Anastrozole] | 56.9 |
| Oc1c(I)cc(Cl)c2cccnc12 [Clioquinol] | 48 |

| SMILES | HCT116-GFP viability [%] |
| --- | --- |
| Cc1ccc(C)c(OCCCC(C)(C)C(=O)O)c1 [Gemfibrozil] | 49.3 |
| O=C(CCCN1CCC(O)(c2ccc(Cl)cc2)CC1)c1ccc(F)cc1 [Haloperidol] | 30.9 |
| NC(=O)c1ccc[n+]([C@@H]2O[C@H](COP(=O)([O-])OP(=O)(O)OC[C@H]3O[C@@H](n4cnc5c(N)ncnc54)[C@H](O)[C@@H]3O)[C@@H](O)[C@H]2O)c1 [Nadide] | 77.4 |
| CNCCC=C1c2ccccc2C=Cc2ccccc21 [Norcyclobenzaprine] | 64.4 |
| NC(=O)OCC(O)COc1ccc(Cl)cc1 (centres undefined) [Chlorphensin carbamate] | 55.1 |
| CN1C(C(=O)Nc2ccccn2)=C(O)c2ccccc2S1(=O)=O [Piroxicam] | 32.3 |
| COCCOC(=O)C1=C(C)NC(C)=C(C(=O)OC(C)C)C1c1cccc([N+](=O)[O-])c1 (centres undefined) [Nimodipine] | 55.8 |
| COC(=O)CCc1ccc(OCC(O)CNC(C)C)cc1 (centres undefined) [Esmolol hydrochloride] | 74.7 |
| C[C@]12CCC(=O)C=C1C=C[C@@H]1[C@@H]2CC[C@@]2(C)[C@H]1CC[C@@]21CCC(=O)O1 [Canrenone] | 55 |
| COc1cccc(N(C)C(=S)Oc2ccc3c(c2)CCCC3)n1 [Liranaftate] | 59.8 |
| CCCNC(C)C(=O)Nc1c(C)csc1C(=O)OC (centres undefined) [Articaine hydrochloride] | 46.1 |
| NCCc1cc[nH]n1 [Betazole hydrochloride] | 53 |
| Cc1c(NC(C)C)c(=O)n(-c2ccccc2)n1C [Isopyrin hydrochloride] | 77 |
| CC(C[N+](C)(C)C)OC(N)=O (centres undefined) [Bethanechol chloride] | 28 |
| CN(C)CCN(Cc1ccc(Cl)cc1)c1ccccn1 [Chloropyramine hydrochloride] | 78.9 |
| NS(=O)(=O)Cc1noc2ccccc12 [Zonisamide] | 73.5 |
| COc1ccc2c(c1)C(=O)N(CCc1ccc(S(=O)(=O)NC(=O)NC3CCCCC3)cc1)C(=O)C2(C)C [Gliquidone] | 49.4 |
| COc1ccc([C@@H]2Sc3ccccc3N(CCN(C)C)C(=O)[C@@H]2OC(C)=O)cc1 [Diltiazem hydrochloride] | 47 |
| Cc1cn([C@H]2C[C@H](N=[N+]=[N-])[C@@H](CO)O2)c(=O)[nH]c1=O [Zidovudine, AZT] | 18.3 |
| CN(C)c1cc(NC(=O)CNC(C)(C)C)c(O)c2c1C[C@H]1C[C@H]3[C@H](N(C)C)C(O)=C(C(N)=O)C(=O)[C@@]3(O)C(O)=C1C2=O [Tigecycline] | 74.4 |
| COc1cc(NS(=O)(=O)c2ccc(N)cc2)nc(OC)n1 [Sulfadimethoxine] | 65 |
| CC[N+](CC)(CC(=O)Nc1c(C)cccc1C)Cc1ccccc1 [Denatonium benzoate] | 38.3 |
| CC1(C)O[C@@H]2[C@@H](CO[C@@]3(COS(N)(=O)=O)OC(C)(C)O[C@@H]23)O1 [Topiramate] | 49.7 |
| Cc1cccc(Nc2ccncc2S(=O)(=O)NC(=O)NC(C)C)c1 [Torsemide] | 33 |
| NC(=O)N1c2ccccc2CC(=O)c2ccccc21 [Oxcarbazepine] | 50.8 |

| SMILES | HCT116-GFP viability [%] |
| --- | --- |
| CC(C)Cn1cnc2c(N)nc3ccccc3c21 [Imiquimod] | 31.6 |
| CC(C)NC(=N)NC(=N)Nc1ccc(Cl)cc1 [Proguanil hydrochloride] | 34.3 |
| COc1ccc2c3c1O[C@H]1C[C@@H](O)C=C[C@@]31CCN(C)C2 [Galanthamine hydrobromide] | 32.4 |
| O=c1[nH]c(=O)n([C@H]2C[C@H](O)[C@@H](CO)O2)cc1C(F)(F)F [Trifluridine] | 14.6 |
| Cc1nnc(SCC2=C(C(=O)O)N3C(=O)[C@@H](NC(=O)Cn4cnnn4)[C@H]3SC2)s1 [Cefazolin sodium salt] | 80 |
| S=c1[nH]cnc2nc[nH]c12 [Mercaptopurine] | 31.2 |
| CCCCCCCCNC(C)C(O)c1ccc(SC(C)C)cc1 (centres undefined) [Suloctidil] | 2.85 |
| CC(=O)CC(c1ccc([N+](=O)[O-])cc1)c1c(O)c2ccccc2oc1=O (centres undefined) [Acenocoumarol] | 50.4 |
| CN(Cc1ccc(C(C)(C)C)cc1)Cc1cccc2ccccc12 [Butenafine Hydrochloride] | 43.2 |
| Nc1nnc(-c2cccc(Cl)c2Cl)c(N)n1 [Lamotrigine] | 47.3 |
| CC[C@@]1(O)C(=O)OCc2c1cc1n(c2=O)Cc2cc3c(CN(C)C)c(O)ccc3nc2-1 [Topotecan] | 3.41 |
| Clc1cc(Cl)c(OCC#CI)cc1Cl [Haloprogin] | 56.3 |
| Nc1nc(=O)[nH]cc1F [Flucytosine] | 66.5 |
| Cc1cccc(C)c1NC(=O)CN1CCN(CCCC(c2ccc(F)cc2)c2ccc(F)cc2)CC1 [Lidoflazine] | 35 |
| CC(=O)O[C@]1(C(C)=O)CC[C@H]2[C@@H]3C=C(C)C4=CC(=O)CC[C@]4(C)[C@H]3CC[C@@]21C [Megestrol acetate] | 81.6 |
| CC(C)(C)NCC(O)COc1cccc2c1CC(O)C(O)C2 (centres undefined) [Nadolol] | 72.1 |
| CCOCCn1c(N2CCCN(C)CC2)nc2ccccc21 [Emedastine] | 32.6 |
| Cc1cccn2c(=O)c(-c3nnn[nH]3)cnc12 [Pemirolast potassium] | 43.1 |
| CC[C@H](C)C(=O)O[C@H]1C[C@H](O)C=C2C=C[C@H](C)[C@H](CC[C@@H](O)C[C@@H](O)CC(=O)O)[C@H]21 [Pravastatin] | 22.9 |
| CC(=O)NC[C@H]1CN(c2ccc(N3CCOCC3)c(F)c2)C(=O)O1 [Linezolid] | 49 |
| Cc1nccn1CC1CCc2c(c3ccccc3n2C)C1=O (centres undefined) [Ondansetron Hydrochloride] | 37 |
| COc1ccc2c(c1)c(CC(=O)OCC(=O)O)c(C)n2C(=O)c1ccc(Cl)cc1 [Acemetacin] | 52.7 |
| CCCCC1C(=O)N(c2ccccc2)N(c2ccccc2)C1=O [Phenylbutazone] | 43 |
| CCCc1nc2c(C)cc(-c3nc4ccccc4n3C)cc2n1Cc1ccc(-c2ccccc2C(=O)O)cc1 [Telmisartan] | 48.7 |

Given with bars between the fields: entries from further up.
SMILES | HCT116-GFP viability [%]
Clc1cc(Cl)c(OCC#CI)cc1Cl [Haloprogin] | 56.3
Nc1nc(=O)[nH]cc1F [Flucytosine] | 66.5
Cc1cccc(C)c1NC(=O)CN1CCN(CCCC(c2ccc(F)cc2)c2ccc(F)cc2)CC1 [Lidoflazine] | 35

Given comma-delimited: part of the list above.
SMILES,HCT116-GFP viability [%]
CN1CCC(=C2c3ccccc3CCc3cccnc32)CC1 [Azatadine maleate],58
Nc1nc2ccc(OC(F)(F)F)cc2s1 [Riluzole hydrochloride],37.4

— the supplement of paper PMC9938546
